Assay results from patent US12730111B2, “Systems, methods, and compositions to identify new protein targets of a chemical compound or its derivatives” (priority 2019, dated 2026).

System: HeLa cells
Assay: Anti-PVS immunoprecipitation and proteomic identification of tagged proteins in HeLa cells
Conditions: 1 mM for 30 min

Compound | number of target proteins tagged both by PVS and PVSN | number of target proteins tagged by this compound only
C=CS(=O)(=O)c1ccccc1 [PVS, Phenyl vinyl sulfone] | 103 | 70
C=CS(=O)(=O)Oc1ccccc1 [PVSN, phenyl vinyl sulfonate] | 103 | 10
